Source: publication doi:10.1101/2024.07.17.603870
Results are given in words; binding and its absence hold for the method and conditions named. Where a sequence is shown, tags or fusion partners need not be part of it.

How the values were obtained:
Test in all cases: two-hybrid
Settings in all cases: remark: other sources report otherwise
[1] = target: T1, ABSCISIC ACID … FIVE BINDING PROTEIN 2 (AFP2), BD fusion (Arabidopsis), Q9LMX5
T1 chain: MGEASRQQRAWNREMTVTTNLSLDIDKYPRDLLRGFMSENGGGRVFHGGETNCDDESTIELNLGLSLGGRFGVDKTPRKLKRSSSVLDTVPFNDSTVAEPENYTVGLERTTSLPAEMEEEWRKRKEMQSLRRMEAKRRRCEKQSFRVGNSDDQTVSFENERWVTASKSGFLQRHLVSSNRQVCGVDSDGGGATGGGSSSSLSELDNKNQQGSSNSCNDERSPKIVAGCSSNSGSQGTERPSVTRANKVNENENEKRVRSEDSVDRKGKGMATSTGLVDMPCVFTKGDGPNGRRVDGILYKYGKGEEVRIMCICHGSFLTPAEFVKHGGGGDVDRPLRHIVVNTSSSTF

[2] = target: T2, ABSCISIC ACID … FIVE BINDING PROTEIN 3 (AFP3), BD fusion (Arabidopsis), Q94F39
T2 chain: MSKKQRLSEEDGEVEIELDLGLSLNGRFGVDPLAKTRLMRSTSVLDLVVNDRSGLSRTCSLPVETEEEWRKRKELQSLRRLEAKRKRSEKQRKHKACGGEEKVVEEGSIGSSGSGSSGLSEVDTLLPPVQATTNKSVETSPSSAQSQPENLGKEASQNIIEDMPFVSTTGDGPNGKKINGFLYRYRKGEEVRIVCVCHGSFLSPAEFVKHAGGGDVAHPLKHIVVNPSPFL

[3] = target: T3, ABSCISIC ACID … FIVE BINDING PROTEIN 1 (AFP1), BD fusion (Arabidopsis), Q9LQ98
T3 chain: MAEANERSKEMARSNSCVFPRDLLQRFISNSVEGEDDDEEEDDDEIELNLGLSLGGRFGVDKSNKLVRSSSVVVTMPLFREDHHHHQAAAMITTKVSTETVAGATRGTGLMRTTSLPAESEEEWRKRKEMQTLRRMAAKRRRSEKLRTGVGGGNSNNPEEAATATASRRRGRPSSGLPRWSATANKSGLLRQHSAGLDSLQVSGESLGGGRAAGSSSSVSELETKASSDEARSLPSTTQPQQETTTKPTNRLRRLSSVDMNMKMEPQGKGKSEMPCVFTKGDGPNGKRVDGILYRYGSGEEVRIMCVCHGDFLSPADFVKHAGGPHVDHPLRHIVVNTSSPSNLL

[4] = target: T4, ABSCISIC ACID … FIVE BINDING PROTEIN 4 (AFP4), BD fusion (Arabidopsis), Q9S7Z2
T4 chain: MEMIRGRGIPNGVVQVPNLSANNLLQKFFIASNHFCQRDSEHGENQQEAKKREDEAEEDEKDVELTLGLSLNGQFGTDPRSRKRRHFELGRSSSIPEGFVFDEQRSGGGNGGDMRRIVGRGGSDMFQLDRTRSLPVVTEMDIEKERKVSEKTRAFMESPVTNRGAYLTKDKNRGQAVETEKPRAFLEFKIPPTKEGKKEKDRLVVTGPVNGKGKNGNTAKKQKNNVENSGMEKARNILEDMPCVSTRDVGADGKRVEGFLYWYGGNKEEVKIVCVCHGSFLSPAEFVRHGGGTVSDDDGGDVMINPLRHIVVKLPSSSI

Measured: binding

B1: ABA … …ON 3 (AHG3), two-hybrid fusion, P49598 1-399 (enzyme)
chain: MAGICCGVVGETEPAAPVDSTSRASLRRRLDLLPSIKIVADSAVAPPLENCRKRQKRETVVLSTLPGNLDLDSNVRSENKKARSAVTNSNSVTEAESFFSDVPKIGTTSVCGRRRDMEDAVSIHPSFLQRNSENHHFYGVFDGHGCSHVAEKCRERLHDIVKKEVEVMASDEWTETMVKSFQKMDKEVSQRECNLVVNGATRSMKNSCRCELQSPQCDAVGSTAVVSVVTPEKIIVSNCGDSRAVLCRNGVAIPLSVDHKPDRPDELIRIQQAGGRVIYWDGARVLGVLAMSRAIGDNYLKPYVIPDPEVTVTDRTDEDECLILASDGLWDVVPNETACGVARMCLRGAGAGDDSDAAHNACSDAALLLTKLALARQSSDNVSVVVVDLRKRRNNQASS
no binding: all assays above
